Hit rate of the full screen: of about 410,000 compounds, about 18,000 (4.4%) were called active. This list was built around the results that the source calls inconclusive (neither active nor inactive); the mix of calls is not that of the screen. Rule as the data show it: active = activity change below about -60%; inconclusive = no clear call, values can overlap the other calls; inactive = above about -39%.
Assay: qHTS Assay for inhibitors of the human cytomegalovirus (HCMV)
Conditions: HFF cells, HCMV-luciferase reporter, 72 h; at 57.5 µM; hits give low values
In short: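 HFF cells seeded 16 h at 37C, treated with compounds, infected with luciferase-reporter HCMV at MOI 1 PFU/cell; luciferase read at 72 h post infection, normalized to buffer-only and Salinomycin controls.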
% is scaled to controls: 0 for no effect and ±100 for the full control effect.

Row | SMILES | activity change, negative = inhibition
1 | O=S(=O)(c1ccc2nc(N3CCN(c4ccccc4F)CC3)ccc2c1)N1CCCCC1 | inconclusive: 0%
2 | CCCS(=O)(=O)c1c(S(=O)(=O)CCC)c2c(N)cccn2c1C(=O)c1ccc(OC)cc1 | inconclusive: -57.3%
3 | CC[C@@H]1Cc2cc(O)ccc2C2=C1c1ccc(O)cc1C[C@H]2CC | inconclusive: -59%
4 | CC(Oc1cccc(Cl)c1)C(=O)N1CCCN(C)CC1 (centres undefined) | inactive: -9.09%
5 | NC(=O)NCCc1ccccc1 | inconclusive: -52.9%
6 | CC1(C)CC(=O)C=C(c2ccc(F)nc2)C1 | inconclusive: -44.4%
7 | COc1cc(C(=O)NCCOc2cccc3cccnc23)cc(OC)c1OC | inactive: 132%
8 | CCC(=O)Nc1nc(CC(=O)Nc2ccccc2)cs1 | inconclusive: -43.8%
9 | COc1ccccc1C(=O)N1c2ccccc2Sc2ccccc21 | active: -72.7%
10 | O=C(Nc1ccccc1C(=O)N/N=C/c1ccco1)c1ccc(F)cc1 | inactive: -1.04%
11 | COCCn1c(SCC(=O)N2CCCCC2)nc2c(c1=O)SCC2 | inconclusive: -42.4%
12 | Fc1cccc(F)c1-n1c(CN2CCCCC2)csc1=S | active: -68%
13 | COc1ccc(OC)c(S(=O)(=O)NCC(c2cccs2)S(=O)(=O)c2ccc(F)cc2)c1 (centres undefined) | inconclusive: -52.4%
14 | NNC(=O)CSc1c(-c2ccccc2)c2cc(Cl)ccc2[nH]c1=O | inconclusive: -41.5%
15 | COc1ccc(NC(=O)C2(C)CCN2Cc2ccc3ccccc3c2)cc1OC (centres undefined) | inconclusive: -52.5%
16 | CCCS(=O)(=O)N1CCC(C(=O)NCCOC)CC1 | inactive: 15.5%
17 | CCOC(=O)Nc1sc2nc(C)cc(C)c2c1-n1cccc1 | inconclusive: -41.7%
18 | COc1ccc(Cn2c(C(=O)O)c(CNCc3ccc(SC)cc3)c3ccc(OC)cc32)cc1 | active: -91.1%
19 | COC(=O)c1scc(C)c1NC(=O)Nc1ccccc1 | active: -99%
20 | CC(=O)Nc1sc(NC(=O)c2ccc(Cl)cc2)nc1-c1cccs1 | inactive: -4.36%
21 | COc1ccccc1CNC(=O)c1ccc2c(=O)n(CC3CCCO3)c(=S)[nH]c2c1 (centres undefined) | inconclusive: -51.3%
22 | CN(CC(=O)NCC(c1ccco1)N1CCCCC1)S(=O)(=O)c1ccc(Cl)cc1 (centres undefined) | inconclusive: -57%

Row | SMILES | activity change, negative = inhibition
23 | Brc1cccc(-c2cnco2)c1 | inconclusive: -47%
24 | COc1ccc(NS(=O)(=O)c2cc(NC(=O)C3CCCCC3)ccc2N2CCOCC2)cc1 | inconclusive: -48%
25 | COc1ccc(/C=N/n2c(C)nc3ccccc3c2=O)cc1 | inactive: -7.21%
26 | COc1ccccc1Nc1nc(NCCC(C)C)nc(N)c1[N+](=O)[O-] | inconclusive: -40.1%
27 | COc1ccc(O)c(C(=O)c2coc(=N)c(C(=O)Nc3ccc(SC(F)F)cc3)c2)c1 | inconclusive: -45.2%
28 | COc1ccc2nc(NC(=O)C3CCCN(S(=O)(=O)c4cccc5nsnc45)C3)sc2c1 (centres undefined) | inconclusive: -54.6%
29 | CCOC(=O)c1sc(Nc2ccc(OCC)cc2)nc1C | inconclusive: -42.7%
30 | CSc1nc(C)c(C(=O)C[n+]2ccccc2C)cc1C#N | inconclusive: -41.4%
31 | CS(=O)(=O)c1ccc(-c2cccc(NC(=O)COc3ccccc3)c2)nn1 | inconclusive: -50.3%
32 | C=CCc1ccc(OCC(O)CN2CCN(Cc3ccc(Cl)cc3)CC2)c(OC)c1 (centres undefined) | inconclusive: -54.2%
33 | CCOc1cc(C(=O)OCC(=O)NC(C)c2ccccc2)ccc1OCC(=O)N1CCOCC1 (centres undefined) | inconclusive: -45.7%
34 | Cc1ccc(N2C(=O)N(CC(=O)c3cc(C)ccc3C)C(=O)C2C)cc1 (centres undefined) | inconclusive: -58.2%
35 | C=CCn1c(SCc2ccc(C#N)cc2)nnc1-c1cccc(Cl)c1 | inconclusive: -52.2%
36 | Cc1ccccc1C(=O)NCCCc1ccccc1 | inactive: -39.3%
37 | Cc1ccc(Nc2c([N+](=O)[O-])c(=O)n(C)c3ccccc23)cc1C | inactive: -6.55%
38 | CCn1nc(C)c(NC(=O)c2ccc(Br)o2)c1C | inconclusive: -46.3%
39 | COc1cc([N+](=O)[O-])c(N2CCOCC2)c([N+](=O)[O-])c1OC | inconclusive: -49.6%
40 | O=C(NCC1CC1)c1ccc2sc([C@H]3C[C@H](O)[C@@H](CO)O3)nc2c1 | active: -102%
41 | CCOc1ccccc1N(C)C(=O)c1c2c(nc3ccccc13)C(=O)N(C1CCCCC1)C2 | inactive: -4.86%
42 | CC(C)Cc1ccc(C(C)C(=O)Nc2ccc(O)cc2)cc1 (centres undefined) | active: -65.8%
43 | CCc1ccc(C(=O)NNc2ccccc2F)cc1 | inconclusive: -54.1%
44 | COC(=O)c1c(NC(=O)C2CCCO2)sc2c1CCC2 (centres undefined) | inactive: -36.5%

Ordered by length of the SMILES (smallest number first): some entries from above.
Row | SMILES | activity change, negative = inhibition
17 | CCOC(=O)Nc1sc2nc(C)cc(C)c2c1-n1cccc1 | inconclusive: -41.7%
35 | C=CCn1c(SCc2ccc(C#N)cc2)nnc1-c1cccc(Cl)c1 | inconclusive: -52.2%
26 | COc1ccccc1Nc1nc(NCCC(C)C)nc(N)c1[N+](=O)[O-] | inconclusive: -40.1%

Source: PubChem BioAssay AID1259415 (National Center for Advancing Translational Sciences (NCATS), 2018)
